Measurements reported in PubChem BioAssay AID1259405 (NCATS, 2018)
Here is a random part of about 50,000 reagents tested. About 4,000 of all reagents (8%) were called active. 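Mouse siRNA library applied to hamster cells; one well for each siRNA.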 The numbers tell different reagents against one gene apart. Reagent sequences are not shown.

Aim: 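Knock-downs that lift recombinant protein yield in hamster ovary cells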 (primary screen)
Cell system: Chinese hamster CHO-K1 ovary cells with stable secreted eGFP expression
Reagents: single siRNA against mouse genes, 0.8 pmol siRNA per well (2 µl of 400 nM stock)
Timing: 3 days
Read-out: 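Percent of the per-plate non-targeting control median for intracellular GFP per well by laser scanning cytometry and for cell viability by ATP luminescence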
Direction: GFP, % of control: higher = more GFP per well, higher productivity; viability (ATP), % of control: higher = more viable cells (more ATP)
Call rule: 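a knock-down is called active if GFP reaches 120% or more of non-targeting control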

Target gene | siRNA no. | GFP, % of control | viability (ATP), % of control | Outcome
P2ry2 | 1 | 50.9 | 37.1 | inactive
P2ry2 | 2 | 71.2 | 68.4 | inactive
P2ry2 | 3 | 48.2 | 67.3 | inactive
Adam12 | 1 | 101 | 96.5 | inactive
Adam12 | 2 | 94.5 | 63 | inactive
Adam12 | 3 | 72.7 | 79 | inactive
Paqr3 | 1 | 223 | 97.6 | active
Paqr3 | 2 | 88.5 | 63.1 | inactive
Paqr3 | 3 | 25.3 | 82.1 | inactive
Mrpl12 | 1 | 125 | 98.5 | active
Mrpl12 | 2 | 106 | 79.4 | inactive
Mrpl12 | 3 | 134 | 80.4 | active
Fpr-rs3 | 1 | 37.4 | 43.7 | inactive
Fpr-rs3 | 2 | 65.4 | 92.1 | inactive
Fpr-rs3 | 3 | 59.4 | 69.9 | inactive
Mindy4 | 1 | 89.1 | 97.3 | inactive
Mindy4 | 2 | 76.5 | 99.6 | inactive
Mindy4 | 3 | 79.9 | 108 | inactive
Slc25a28 | 1 | 86.4 | 84.3 | inactive
Slc25a28 | 2 | 45.7 | 80.4 | inactive
Slc25a28 | 3 | 53.1 | 43.5 | inactive
Slc7a13 | 1 | 52.2 | 63 | inactive
Slc7a13 | 2 | 133 | 81.1 | active
Slc7a13 | 3 | 80.8 | 82.2 | inactive
Cabp2 | 1 | 95.5 | 102 | inactive
Cabp2 | 2 | 55.8 | 59.9 | inactive
Zic1 | 1 | 92.4 | 96.4 | inactive
Zic1 | 2 | 99.8 | 98.5 | inactive
Akap12 | 1 | 90.2 | 99 | inactive
Akap12 | 2 | 60.1 | 56.6 | inactive
Pstpip2 | 1 | 64.3 | 56.9 | inactive
Pstpip2 | 2 | 74.1 | 74.5 | inactive
Dis3l2 | 1 | 30.2 | 36.4 | inactive
Dis3l2 | 2 | 49.5 | 56.8 | inactive
Dis3l2 | 3 | 63.9 | 54.8 | inactive
Ncoa3 | 1 | 140 | 87.8 | active
Ncoa3 | 2 | 56.1 | 65.6 | inactive
Ncoa3 | 3 | 111 | 99.9 | inactive
Dcun1d4 | 1 | 72.4 | 71.9 | inactive
Dcun1d4 | 2 | 72.5 | 106 | inactive
Dcun1d4 | 3 | 75.6 | 60.3 | inactive
Snx15 | 1 | 144 | 79.9 | active
Snx15 | 2 | 75.4 | 60 | inactive
Snx15 | 3 | 45.2 | 48.9 | inactive
Psmb11 | 1 | 146 | 122 | active
Psmb11 | 2 | 180 | 53.4 | active
Psmb11 | 3 | 128 | 89.8 | active
H1f1 | 1 | 84.5 | 84.2 | inactive
H1f1 | 2 | 106 | 85.9 | inactive
H1f1 | 3 | 56.4 | 73.4 | inactive
Gjc2 | 1 | 108 | 63.5 | inactive
Gjc2 | 2 | 126 | 105 | active
Gjc2 | 3 | 59.2 | 84.9 | inactive
Pln | 1 | 76.4 | 49.2 | inactive
Pln | 2 | 98.4 | 57.6 | inactive
Pln | 3 | 98.7 | 70 | inactive
Pou6f1 | 1 | 55.1 | 71.4 | inactive
Pou6f1 | 2 | 72.8 | 79.6 | inactive
Pou6f1 | 3 | 87.6 | 64.6 | inactive
